Common to all, as to settings: 5 µM; treatment: days 7-14 after plating, readout day 21
The test system of test [1] is hPSC-derived cortical neurons (WA09). The experiment in a line: nucleus area z-score vs screen plate; higher = larger nuclei (more mature).
For test [2] the test system is unchanged. The experiment in a line: total neurite length per nucleus (MAP2) z-score; higher = more neurite growth.
Test [3] has the same test system. The experiment in a line: nucleus roundness z-score vs screen plate; higher = rounder nuclei (more mature).
Test [4] shares this test system. The experiment in a line: KCl-induced FOS+/EGR-1+ double-positive nuclei fraction z-score (KCl minus unstimulated); higher = stronger activity-induced IEG response.

The text below walks through data of the supplement of paper PMC11348887.

Counter-ions that a name gives are not always drawn. The list shows a part of the results. Most values lie at the level of the controls, where differences are scatter. Where a SMILES comes first, the peptide text is derived from it.

Regarding `Fc1ccc([C@@H]2CCNC[C@H]2COc2ccc3c(c2)OCO3)cc1` [Paroxetine HCl], the nucleus area z-score in test [1] is -0.452. In test [2], the “total neurite length per nucleus (z-score)” value amounted to 0.389. Further, in test [3], the nucleus roundness z-score is -0.121. The “KCl-induced FOS+/EGR-1+ double-positive nuclei fraction z-score” value in test [4] was -2.08.
In test [1], `CNC(=O)CN1CCC(Oc2cc3c(Nc4cccc(Cl)c4F)ncnc3cc2OC)CC1` [AZD8931 (Sapitinib)] came in with a nucleus area z-score of 1.65. The “total neurite length per nucleus (z-score)” value in test [2] is -1.06. The nucleus roundness z-score in test [3] was -0.846. For the same compound, in test [4], the “KCl-induced FOS+/EGR-1+ double-positive nuclei fraction z-score” value was -0.764.
In test [1], `CC(=O)CCCCn1c(=O)c2c(ncn2C)n(C)c1=O` [Pentoxifylline] registered a nucleus area z-score of 1.43. In addition, the “total neurite length per nucleus (z-score)” value in test [2] was found to be 1.11. The compound also came in with a nucleus roundness z-score in test [3] of -0.77. For the same compound, the “KCl-induced FOS+/EGR-1+ double-positive nuclei fraction z-score” value in test [4] was 0.628.
Turning to `S=c1nc[nH]c2nc[nH]c12` [6-Mercaptopurine (6-MP) Monohydrate], the nucleus area z-score in test [1] is -0.0811. For the same compound, the “total neurite length per nucleus (z-score)” value in test [2] is 0.297. Besides, the nucleus roundness z-score in test [3] was 0.0249. Moreover, the “KCl-induced FOS+/EGR-1+ double-positive nuclei fraction z-score” value in test [4] worked out at 0.00615.
The matching figures for `COc1cccc(-c2cc(NCc3ccc4c(c3)OCO4)nc(N)n2)c1` [Wnt agonist 1]: -10.4, -3.89, -2.44 and -0.819.
`COC(=O)[C@H](Cc1ccccc1)NC(=O)[C@@H](N)CC(=O)O` [Aspartame] (H-Asp-Phe-OMe) gave a nucleus area z-score in test [1] of 0.229. Also, the “total neurite length per nucleus (z-score)” value in test [2] was -0.993. Further, in test [3], the nucleus roundness z-score was -0.485. Moreover, the “KCl-induced FOS+/EGR-1+ double-positive nuclei fraction z-score” value in test [4] is -1.11.
`O=C1c2ccccc2C(=O)c2c1ccc(O)c2O` [Alizarin] yielded a nucleus area z-score in test [1] of 0.822. For the same compound, the “total neurite length per nucleus (z-score)” value in test [2] worked out at 0.412. This compound also gave a nucleus roundness z-score in test [3] of 0.24. Besides, the “KCl-induced FOS+/EGR-1+ double-positive nuclei fraction z-score” value in test [4] amounted to 1.38.
In test [1], `O=c1c(-c2ccc(O)cc2)coc2cc(O)cc(O)c12` [Genistein] registered a nucleus area z-score of 0.934. In addition, in test [2], the “total neurite length per nucleus (z-score)” value was 0.587. In test [3], this compound had a nucleus roundness z-score of 0.225. For the same compound, the “KCl-induced FOS+/EGR-1+ double-positive nuclei fraction z-score” value in test [4] was found to be 0.015.
`c1ccc(-c2ccc(C(c3ccccc3)n3ccnc3)cc2)cc1` (stereo not given) [Bifonazole] registered a nucleus area z-score in test [1] of -0.721. In addition, in test [2], the “total neurite length per nucleus (z-score)” value was -1.02. Besides, in test [3], the nucleus roundness z-score was -1.62. Also, the “KCl-induced FOS+/EGR-1+ double-positive nuclei fraction z-score” value in test [4] was 1.43.
The matching figures for `CCOc1nc2cccc(C(=O)O)c2n1Cc1ccc(-c2ccccc2-c2noc(=O)[nH]2)cc1` [Azilsartan]: -13.8, -1.95, -8.97 and -0.29.
